Results are given in words; binding and its absence hold for the method and conditions named. Binding seen in cells or lysates may run through a third protein. Some binding calls cover weakened binding; strength is not graded here. One block for each binder: values may come before it.
How the values were obtained:
[1] = target: T1, heme oxygenase 1 (human (endogenous in PDLSCs)) (UniProt P09601); assay: co-IP; endogenous proteins in NP-40 lysate of human PDLSCs (cyclic mechanical stress; with or without t-BHQ); primary antibody (2.5 ug) and Protein A/G Plus Agarose at 4°C overnight, washed three times with NP-40 lysis buffer, western blotting
T1 sequence: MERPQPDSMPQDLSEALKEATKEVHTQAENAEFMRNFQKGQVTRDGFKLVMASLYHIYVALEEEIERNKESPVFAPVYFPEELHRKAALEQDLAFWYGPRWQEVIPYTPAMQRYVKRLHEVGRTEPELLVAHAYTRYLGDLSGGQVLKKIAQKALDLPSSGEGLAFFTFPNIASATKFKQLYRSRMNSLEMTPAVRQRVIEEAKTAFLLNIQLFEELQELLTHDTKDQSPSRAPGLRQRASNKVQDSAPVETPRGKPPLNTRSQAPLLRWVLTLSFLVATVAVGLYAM

[2] = target: T2, superoxide dismutase 2 (human (endogenous in PDLSCs)) (UniProt P04179); assay: as above
T2 sequence: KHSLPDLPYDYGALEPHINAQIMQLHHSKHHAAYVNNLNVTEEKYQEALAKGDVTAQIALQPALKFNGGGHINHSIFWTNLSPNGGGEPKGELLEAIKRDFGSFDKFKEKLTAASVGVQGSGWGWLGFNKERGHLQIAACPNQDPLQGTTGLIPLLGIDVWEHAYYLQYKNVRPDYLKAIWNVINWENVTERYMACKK

binding [1]: binds
B1: superoxide dismutase 2 (enzyme, UniProt P04179 25-222)
chain: T2 sequence

binding [2]: binds
B2: heme oxygenase 1 (enzyme, UniProt P09601 1-288)
chain: T1 sequence

— PMC8770743
